Compound in the experiment: CC1Cc2ccccc2N1C(=O)C1CCCN(C1)C(=O)CCl (mixture of isomers) [TRIM25 ligand 11 (diastereomer mixture)]
The experiment in a line: probe-labelled cysteine peptide fold change vs DMSO (competition) (log2 fold change); higher = less target engagement (more negative = stronger competition). The settings on record: THP-1, incubation time: 4 h.

By UniProt entry, the sequences of proteins in these tests, tags left out. Where a name states a change or a piece, a line headed by the entry shows the natural chain unless it says otherwise.
UniProt Q9BQ24: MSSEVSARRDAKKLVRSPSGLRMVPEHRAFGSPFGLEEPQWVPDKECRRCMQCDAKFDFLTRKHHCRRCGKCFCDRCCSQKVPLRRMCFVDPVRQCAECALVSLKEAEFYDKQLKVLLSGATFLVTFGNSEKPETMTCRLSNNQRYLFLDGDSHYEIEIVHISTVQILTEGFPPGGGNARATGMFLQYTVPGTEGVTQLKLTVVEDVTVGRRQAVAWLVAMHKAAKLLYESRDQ
UniProt Q6N043: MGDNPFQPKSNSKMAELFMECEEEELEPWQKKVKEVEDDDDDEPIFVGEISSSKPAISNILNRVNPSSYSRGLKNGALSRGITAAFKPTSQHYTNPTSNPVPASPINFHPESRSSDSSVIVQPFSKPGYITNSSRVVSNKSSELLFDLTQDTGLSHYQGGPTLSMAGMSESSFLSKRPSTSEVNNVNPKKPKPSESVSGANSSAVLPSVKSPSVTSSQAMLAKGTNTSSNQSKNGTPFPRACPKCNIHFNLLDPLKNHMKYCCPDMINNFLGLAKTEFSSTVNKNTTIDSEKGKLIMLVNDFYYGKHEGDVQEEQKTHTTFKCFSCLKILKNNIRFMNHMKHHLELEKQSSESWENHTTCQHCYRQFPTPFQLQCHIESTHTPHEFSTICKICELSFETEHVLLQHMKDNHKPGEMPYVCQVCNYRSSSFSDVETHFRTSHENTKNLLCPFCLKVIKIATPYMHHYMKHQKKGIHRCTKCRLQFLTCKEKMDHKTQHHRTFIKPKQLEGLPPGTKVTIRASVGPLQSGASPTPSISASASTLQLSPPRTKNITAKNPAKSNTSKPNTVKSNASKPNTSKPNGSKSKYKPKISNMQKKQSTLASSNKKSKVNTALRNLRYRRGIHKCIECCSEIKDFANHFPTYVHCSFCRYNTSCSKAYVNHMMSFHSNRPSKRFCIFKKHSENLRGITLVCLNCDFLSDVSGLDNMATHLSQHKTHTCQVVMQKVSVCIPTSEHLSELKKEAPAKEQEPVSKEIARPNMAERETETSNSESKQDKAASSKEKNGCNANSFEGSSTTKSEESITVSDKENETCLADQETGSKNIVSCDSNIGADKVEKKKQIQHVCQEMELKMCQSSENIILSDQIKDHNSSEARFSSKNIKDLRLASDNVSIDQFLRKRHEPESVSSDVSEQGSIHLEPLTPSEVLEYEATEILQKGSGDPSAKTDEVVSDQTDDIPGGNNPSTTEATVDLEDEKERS
UniProt Q96K21: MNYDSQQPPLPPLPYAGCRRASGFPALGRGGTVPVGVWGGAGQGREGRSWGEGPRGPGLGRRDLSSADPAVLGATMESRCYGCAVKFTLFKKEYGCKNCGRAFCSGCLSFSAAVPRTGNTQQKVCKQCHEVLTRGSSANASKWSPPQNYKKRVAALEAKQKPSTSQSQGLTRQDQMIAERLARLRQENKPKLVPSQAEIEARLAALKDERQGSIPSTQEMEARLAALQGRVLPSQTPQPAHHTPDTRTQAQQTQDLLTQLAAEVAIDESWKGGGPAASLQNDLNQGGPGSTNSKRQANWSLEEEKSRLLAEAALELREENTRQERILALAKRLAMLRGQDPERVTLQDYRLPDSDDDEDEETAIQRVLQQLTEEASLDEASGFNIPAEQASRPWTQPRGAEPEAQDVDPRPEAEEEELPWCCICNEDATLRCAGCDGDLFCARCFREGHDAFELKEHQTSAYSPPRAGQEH
UniProt Q9H8U3: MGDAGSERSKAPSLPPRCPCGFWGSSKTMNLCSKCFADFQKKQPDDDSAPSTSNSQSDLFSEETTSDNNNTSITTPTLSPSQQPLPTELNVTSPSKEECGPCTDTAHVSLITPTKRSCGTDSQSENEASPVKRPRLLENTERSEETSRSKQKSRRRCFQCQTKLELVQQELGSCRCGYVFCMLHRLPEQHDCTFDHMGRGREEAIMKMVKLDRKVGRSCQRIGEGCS
UniProt Q9H4I2: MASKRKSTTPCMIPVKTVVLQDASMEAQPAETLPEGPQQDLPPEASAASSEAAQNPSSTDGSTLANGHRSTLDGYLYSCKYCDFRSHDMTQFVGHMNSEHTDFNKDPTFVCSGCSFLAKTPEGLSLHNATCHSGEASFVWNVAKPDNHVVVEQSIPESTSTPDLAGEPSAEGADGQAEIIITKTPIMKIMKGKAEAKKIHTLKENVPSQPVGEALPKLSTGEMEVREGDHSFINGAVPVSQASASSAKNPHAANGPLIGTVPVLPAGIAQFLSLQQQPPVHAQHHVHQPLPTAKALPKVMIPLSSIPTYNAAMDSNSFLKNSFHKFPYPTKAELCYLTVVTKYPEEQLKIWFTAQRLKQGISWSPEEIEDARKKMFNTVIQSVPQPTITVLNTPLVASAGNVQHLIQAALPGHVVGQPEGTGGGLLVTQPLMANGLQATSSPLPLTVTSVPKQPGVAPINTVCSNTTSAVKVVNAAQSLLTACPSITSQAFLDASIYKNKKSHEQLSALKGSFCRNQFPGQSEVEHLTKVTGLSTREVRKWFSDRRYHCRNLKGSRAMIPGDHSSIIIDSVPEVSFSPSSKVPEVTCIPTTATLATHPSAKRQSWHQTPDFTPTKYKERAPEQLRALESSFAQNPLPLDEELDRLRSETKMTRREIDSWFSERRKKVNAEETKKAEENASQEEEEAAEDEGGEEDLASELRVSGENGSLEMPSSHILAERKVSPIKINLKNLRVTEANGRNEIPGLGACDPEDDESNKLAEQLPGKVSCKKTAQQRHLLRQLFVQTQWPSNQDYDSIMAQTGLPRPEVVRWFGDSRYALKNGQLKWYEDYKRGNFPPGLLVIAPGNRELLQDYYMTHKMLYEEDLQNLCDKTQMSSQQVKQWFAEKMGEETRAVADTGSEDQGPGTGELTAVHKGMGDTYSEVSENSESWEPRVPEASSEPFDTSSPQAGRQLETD
UniProt Q86UK7: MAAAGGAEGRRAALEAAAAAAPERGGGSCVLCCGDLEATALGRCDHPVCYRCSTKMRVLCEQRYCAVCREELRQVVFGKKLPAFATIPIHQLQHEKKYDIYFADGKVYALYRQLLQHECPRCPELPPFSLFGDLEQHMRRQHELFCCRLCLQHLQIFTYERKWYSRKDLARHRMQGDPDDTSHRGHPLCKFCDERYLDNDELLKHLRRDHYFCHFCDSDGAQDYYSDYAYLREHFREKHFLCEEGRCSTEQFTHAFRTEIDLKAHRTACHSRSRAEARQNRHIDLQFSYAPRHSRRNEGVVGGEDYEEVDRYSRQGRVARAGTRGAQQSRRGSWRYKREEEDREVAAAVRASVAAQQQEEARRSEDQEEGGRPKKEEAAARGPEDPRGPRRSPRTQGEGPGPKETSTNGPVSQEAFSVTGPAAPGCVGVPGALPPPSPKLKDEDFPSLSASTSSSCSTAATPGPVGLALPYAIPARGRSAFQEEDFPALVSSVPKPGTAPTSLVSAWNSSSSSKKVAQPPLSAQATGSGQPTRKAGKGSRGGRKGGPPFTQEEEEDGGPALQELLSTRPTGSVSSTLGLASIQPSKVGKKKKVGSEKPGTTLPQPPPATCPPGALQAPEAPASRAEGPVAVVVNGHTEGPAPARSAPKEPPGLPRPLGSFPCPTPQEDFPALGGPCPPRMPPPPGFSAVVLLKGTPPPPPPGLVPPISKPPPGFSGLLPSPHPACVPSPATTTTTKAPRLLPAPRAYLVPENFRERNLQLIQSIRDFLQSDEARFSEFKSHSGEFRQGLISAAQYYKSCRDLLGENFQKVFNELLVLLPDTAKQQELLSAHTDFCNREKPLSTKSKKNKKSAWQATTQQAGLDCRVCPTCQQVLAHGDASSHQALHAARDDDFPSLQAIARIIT
UniProt O95159: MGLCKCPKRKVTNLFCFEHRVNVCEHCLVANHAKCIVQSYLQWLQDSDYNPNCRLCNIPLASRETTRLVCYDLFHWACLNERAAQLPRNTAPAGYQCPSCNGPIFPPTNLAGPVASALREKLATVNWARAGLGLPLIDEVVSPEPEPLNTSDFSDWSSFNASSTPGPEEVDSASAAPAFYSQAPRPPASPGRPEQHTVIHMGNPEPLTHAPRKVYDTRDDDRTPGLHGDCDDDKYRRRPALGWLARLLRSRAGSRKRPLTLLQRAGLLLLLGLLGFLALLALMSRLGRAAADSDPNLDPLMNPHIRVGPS
UniProt Q96LX8: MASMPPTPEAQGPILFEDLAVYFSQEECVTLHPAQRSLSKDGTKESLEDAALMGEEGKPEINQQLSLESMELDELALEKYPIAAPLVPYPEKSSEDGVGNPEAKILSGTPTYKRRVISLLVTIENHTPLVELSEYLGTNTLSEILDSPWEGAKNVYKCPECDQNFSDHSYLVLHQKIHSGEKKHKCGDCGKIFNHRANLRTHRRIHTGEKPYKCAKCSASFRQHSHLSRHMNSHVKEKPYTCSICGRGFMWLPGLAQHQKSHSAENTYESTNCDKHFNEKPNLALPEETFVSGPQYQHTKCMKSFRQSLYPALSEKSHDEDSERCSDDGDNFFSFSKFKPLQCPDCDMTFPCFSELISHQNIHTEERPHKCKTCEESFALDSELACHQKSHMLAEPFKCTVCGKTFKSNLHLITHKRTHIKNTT
UniProt O76080: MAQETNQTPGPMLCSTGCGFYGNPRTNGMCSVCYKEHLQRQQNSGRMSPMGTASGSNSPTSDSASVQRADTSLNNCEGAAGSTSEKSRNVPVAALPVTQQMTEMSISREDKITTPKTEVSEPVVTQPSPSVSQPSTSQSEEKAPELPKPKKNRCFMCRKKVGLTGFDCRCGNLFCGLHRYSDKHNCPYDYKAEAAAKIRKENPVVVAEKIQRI
UniProt Q9Y3S2: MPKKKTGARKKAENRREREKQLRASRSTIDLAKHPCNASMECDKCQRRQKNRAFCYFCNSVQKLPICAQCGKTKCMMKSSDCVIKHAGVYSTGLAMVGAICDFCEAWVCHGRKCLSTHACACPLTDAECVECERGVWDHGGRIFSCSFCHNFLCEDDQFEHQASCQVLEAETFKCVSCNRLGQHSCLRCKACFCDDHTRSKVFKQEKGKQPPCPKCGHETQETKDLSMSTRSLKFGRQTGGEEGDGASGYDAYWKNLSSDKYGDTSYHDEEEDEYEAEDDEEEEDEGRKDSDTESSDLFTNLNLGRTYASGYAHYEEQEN
UniProt Q6FIF0: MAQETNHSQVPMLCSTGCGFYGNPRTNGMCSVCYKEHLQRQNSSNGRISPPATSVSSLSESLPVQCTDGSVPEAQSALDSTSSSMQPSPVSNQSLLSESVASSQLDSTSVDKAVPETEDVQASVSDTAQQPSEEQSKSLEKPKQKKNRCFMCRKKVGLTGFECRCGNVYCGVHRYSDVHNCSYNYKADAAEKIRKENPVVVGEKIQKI
UniProt Q9H8G1: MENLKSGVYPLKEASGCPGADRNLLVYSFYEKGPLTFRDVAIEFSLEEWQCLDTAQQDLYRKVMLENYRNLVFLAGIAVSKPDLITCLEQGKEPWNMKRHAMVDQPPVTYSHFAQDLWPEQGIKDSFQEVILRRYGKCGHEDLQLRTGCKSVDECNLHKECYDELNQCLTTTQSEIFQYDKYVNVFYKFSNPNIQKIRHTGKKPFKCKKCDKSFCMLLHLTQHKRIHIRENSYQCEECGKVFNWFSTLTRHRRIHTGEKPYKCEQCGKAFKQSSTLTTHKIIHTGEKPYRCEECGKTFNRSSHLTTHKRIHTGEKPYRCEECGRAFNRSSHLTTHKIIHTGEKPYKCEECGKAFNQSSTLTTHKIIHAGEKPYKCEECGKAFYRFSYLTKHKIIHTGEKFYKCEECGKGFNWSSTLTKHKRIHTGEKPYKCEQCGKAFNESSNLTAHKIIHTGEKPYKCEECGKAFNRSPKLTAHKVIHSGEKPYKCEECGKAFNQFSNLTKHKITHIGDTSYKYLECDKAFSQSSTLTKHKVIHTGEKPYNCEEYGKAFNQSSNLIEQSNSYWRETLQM
UniProt Q8ND82: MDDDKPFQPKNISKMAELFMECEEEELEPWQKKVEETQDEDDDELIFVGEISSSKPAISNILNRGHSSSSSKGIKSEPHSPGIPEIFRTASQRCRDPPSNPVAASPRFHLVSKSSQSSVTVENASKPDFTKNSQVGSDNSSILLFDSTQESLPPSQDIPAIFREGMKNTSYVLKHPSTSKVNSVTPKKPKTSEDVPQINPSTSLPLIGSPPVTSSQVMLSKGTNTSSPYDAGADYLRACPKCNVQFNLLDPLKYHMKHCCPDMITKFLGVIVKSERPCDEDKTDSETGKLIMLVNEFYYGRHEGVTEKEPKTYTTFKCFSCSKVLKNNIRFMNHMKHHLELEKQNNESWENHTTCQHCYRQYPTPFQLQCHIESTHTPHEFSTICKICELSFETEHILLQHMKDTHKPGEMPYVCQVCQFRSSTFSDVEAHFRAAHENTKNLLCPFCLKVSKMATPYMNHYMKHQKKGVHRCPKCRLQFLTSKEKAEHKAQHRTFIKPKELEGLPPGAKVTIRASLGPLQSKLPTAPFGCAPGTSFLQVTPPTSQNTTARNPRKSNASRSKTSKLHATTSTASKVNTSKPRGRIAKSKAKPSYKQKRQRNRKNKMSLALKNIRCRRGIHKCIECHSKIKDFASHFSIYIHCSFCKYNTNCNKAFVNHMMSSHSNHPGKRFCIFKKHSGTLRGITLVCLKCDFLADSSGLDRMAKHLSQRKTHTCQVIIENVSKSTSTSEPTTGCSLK

The list shows a part of the results.
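Also: competitive chemoproteomic profiling in live THP-1 cells with an iodoacetamide desthiobiotin (IA-DTB) probe, comparing probe-labelled peptide intensities in compound-treated cells against DMSO-treated controls.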

Consider “ZFYVE21_Q9BQ24_99_QCAECALVSLK (UniProt Q9BQ24)”, for which the “probe-labelled cysteine peptide fold change” value runs as follows: (10 µM) -0.0829; (50 µM) -0.0315.

For the target “ZNF280D_Q6N043_323_CFSCLK (UniProt Q6N043)”, the “probe-labelled cysteine peptide fold change” value by setting is: (10 µM) 0.0838; (50 µM) 0.233.

For the target “ZMYM2_Q9UBW7_608_LYNFCNSSCVAK (UniProt Q9UBW7)”, the “probe-labelled cysteine peptide fold change” value is, setting by setting: (10 µM) -0.0314; (50 µM) 0.0341.

Turning to “ZFYVE19_Q96K21_435_CAGCDGDLFCAR (UniProt Q96K21)”, the “probe-labelled cysteine peptide fold change” value reads like this: (10 µM) -0.0741; (50 µM) -0.152.

On to “ZNF316_A6NFI3_95_EVLAEEECPALGTQER (UniProt A6NFI3)”, for which the “probe-labelled cysteine peptide fold change” value (10 µM) is 0.155 and the “probe-labelled cysteine peptide fold change” value (50 µM) was -0.11.

As for “ZFAND3_Q9H8U3_192_LPEQHDCTFDHMGR (UniProt Q9H8U3)”, the “probe-labelled cysteine peptide fold change” value was -0.153 (10 µM) and -0.21 (50 µM).

With “ZMYM1_Q5SVZ6_532_EYQFCDGAVSDDLSIHSK (UniProt Q5SVZ6)”, the “probe-labelled cysteine peptide fold change” value by setting is: (10 µM) -0.2; (50 µM) -0.342.

“ZHX3_Q9H4I2_11_STTPCMIPVK (UniProt Q9H4I2)”: the “probe-labelled cysteine peptide fold change” value by setting is: (10 µM) -0.0464; (50 µM) -0.103.

Turning to “ZNF592_Q92610_790_ENCLHYAR (UniProt Q92610)”, the “probe-labelled cysteine peptide fold change” value runs as follows: (10 µM) 0.0187; (50 µM) 0.113.

Regarding “ZNF598_Q86UK7_44_CDHPVCYR (UniProt Q86UK7)”, the “probe-labelled cysteine peptide fold change” value (10 µM) turned out to be 0.0786 and the “probe-labelled cysteine peptide fold change” value (50 µM) was found to be 0.0744.

For “ZFP64_Q9NPA5_196_CHTGVKPYK (UniProt Q9NTW7)”, the “probe-labelled cysteine peptide fold change” value is, setting by setting: (10 µM) -0.136; (50 µM) -0.215.

Turning to “ZFC3H1_O60293_1864_FCSVMPANSGLALR (UniProt O60293)”, the “probe-labelled cysteine peptide fold change” value by setting is: (10 µM) 0.1; (50 µM) 0.0553.

Take “ZNF598_Q86UK7_867_VCPTCQQVLAHGDASSHQALHAAR (UniProt Q86UK7)”: the “probe-labelled cysteine peptide fold change” value turned out to be 0.175 (10 µM) and 0.023 (50 µM).

As for “ZNF687_Q8N1G0_576_CSLLLHAR (UniProt Q8N1G0)”, the “probe-labelled cysteine peptide fold change” value by setting is: (10 µM) 0.101; (50 µM) 0.0491.

As for “ZFPL1_O95159_16_KVTNLFCFEHR (UniProt O95159)”, the “probe-labelled cysteine peptide fold change” value by setting is: (10 µM) -0.108; (50 µM) -0.0733.

As for “ZNF597_Q96LX8_386_TCEESFALDSELACHQK (UniProt Q96LX8)”, the “probe-labelled cysteine peptide fold change” value is, setting by setting: (10 µM) -0.108; (50 µM) -0.17.

For the target “ZFAND5_O76080_170+175_CGNLFCGLHR (UniProt O76080)”, the “probe-labelled cysteine peptide fold change” value is -0.0788 (10 µM) and 0.065 (50 µM).

Consider “ZNF330_Q9Y3S2_70_LPICAQCGK (UniProt Q9Y3S2)”, for which the “probe-labelled cysteine peptide fold change” value reads like this: (10 µM) -0.033; (50 µM) 0.0902.

Turning to “ZFAND6_Q6FIF0_181_YSDVHNCSYNYK (UniProt Q6FIF0)”, the “probe-labelled cysteine peptide fold change” value runs as follows: (10 µM) -0.0968; (50 µM) -0.139.

On to “ZNF598_Q86UK7_150_LCLQHLQIFTYER (UniProt Q86UK7)”, for which the “probe-labelled cysteine peptide fold change” value by setting is: (10 µM) -0.0404; (50 µM) 0.0557.

With “ZNF207_O43670_13_QLKPWCWYCNR (UniProt O43670)”, the “probe-labelled cysteine peptide fold change” value is -0.412 (10 µM) and -0.325 (50 µM).

Regarding “ZNF362_Q5T0B9_232_VCPLTFFTK (UniProt Q5T0B9)”, the “probe-labelled cysteine peptide fold change” value (10 µM) was -0.264 and the “probe-labelled cysteine peptide fold change” value (50 µM) was -0.0216.

Consider “ZFPL1_O95159_16_VTNLFCFEHR (UniProt O95159)”, for which the “probe-labelled cysteine peptide fold change” value amounted to 0.0234 (10 µM) and 0.112 (50 µM).

With “ZNF106_Q9H2Y7_1576_VNCLLVTQTSGK (UniProt Q9H2Y7)”, the “probe-labelled cysteine peptide fold change” value by setting is: (10 µM) 0.121; (50 µM) 0.323.

For “ZNF318_Q5VUA4_1363_SCSATMSK (UniProt Q5VUA4)”, the “probe-labelled cysteine peptide fold change” value is, setting by setting: (10 µM) -0.0388; (50 µM) -0.195.

Regarding “ZNF430_Q9H8G1_138_CGHEDLQLR (UniProt Q9H8G1)”, the “probe-labelled cysteine peptide fold change” value is 0.00386 (10 µM) and 0.00587 (50 µM).

For “ZNF280C_Q8ND82_388_ICELSFETEHILLQHMK (UniProt Q8ND82)”, the “probe-labelled cysteine peptide fold change” value reads like this: (10 µM) -0.0807; (50 µM) -0.0218.

Values taken from the supplement of paper PMC12067093, “Discovery and optimisation of a covalent ligand for TRIM25 and its application to targeted protein ubiquitination” (Chemical Science, 2025).
